{"source": "patent US20210113586A1", "about": "“NEW USE AND METHODS OF MODULATING IMMUNE RESPONSES” (DIAMYD MEDICAL AB, priority 2018, published 2021)", "key": {"[1]": {"tested_on": "PBMCs from T1D individuals", "test": "Proliferation of anti-CD3 stimulated PBMCs from T1D donors", "assay_type": "cell-based, human", "protocol": "(§1) Peripheral Blood Mononuclear cells (PBMCs) are isolated from blood from donors diagnosed with Type-1 diabetes and healthy controls. Alternatively, CD4-positive cells (T-cells) are further isolated from PBMCs by e.g. MACS beads, FACS or similar technology. […] A reasonable replication, such as 3 cultures of each condition, is performed. A normalized proliferation value for each culture is then calculated by a standard proliferation measurement method, such as by CFSE staining or radioactive thymidine incorporation (requiring additional factors be added during culture) or by staining for proliferation markers.\n(§2) In the FIG. 1, the proliferation of cells retrieved from 13 T1D subjects and 15 healthy controls were inspected. […] A normalized proliferation index was calculated for each culture.\n(§3) The proliferation of freshly isolated human PBMCs or CD4^+ T cells was evaluated with MTT (3-(4,5-Dimethylthiazol-2-yl)-2,5-Diphenyltetrazolium Bromide) assay (Ring et al., 2012). Cells were suspended in complete medium (RPMI 1640 supplemented with 2 mM glutamine, 25 mM HEPES, 10% heat inactivated fetal bovine serum, 100 U/ml penicillin, 10 mg/ml streptomycin, 5 mM R-mercaptoethanol) in a concentration 1 million cells per milliliter. […] The formazan crystal pellet was dissolved in DMSO and the plate was read within 10 min using a Multiskan MS plate reader (Labsystems) at 550 nm. […]"}, "[2]": {"tested_on": "PBMCs from nondiabetic (ND) individuals", "settings": "GABA 100 nM; n=7; FIG. 4b", "protocol": "as §3, with “milliliter. The assay was performed in 96-well plates in duplicates or triplicates, where each well was pre-coated with 3 μg/ml anti-CD3 antibody for 3-5 h at 37° C. Each well was loaded with 100,000 cells. Drugs were added to the wells at the relevant concentrations.” for “milliliter.”\n(§4) Plasma samples, and culture media samples that were collected from plate wells at the end of the proliferation assay, were analyzed by multiplex PEA with an Olink Inflammation […] panel, targeting 92 proteins related to inflammation (Olink Proteomics, Uppsala, Sweden) as previously described (Edvinsson et al., 2017, Assarsson et al., 2014, Larsson et al., 2015, Larssen et al., 2017). […] The newly formed DNA molecule is then amplified and quantified using a microfluidic real-time qPCR, BioMark™ HD (Fluidigm, South San Francisco, Calif., USA). […]"}, "[3]": {"tested_on": "PBMCs from type 1 diabetic (T1D) patients", "settings": "GABA 100 nM; n=13; FIG. 4c", "protocol": "as §3, with “milliliter. The assay was performed in 96-well plates in duplicates or triplicates, where each well was pre-coated with 3 μg/ml anti-CD3 antibody for 3-5 h at 37° C. Each well was loaded with 100,000 cells. Drugs were added to the wells at the relevant concentrations.” for “milliliter.”\nas §4"}, "[4]": {"tested_on": "PBMCs from ND individuals", "settings": "Example 2, FIG. 3a; MTT assay", "protocol": "as §1, §2, §3"}, "[5]": {"tested_on": "responder CD4+ T cells", "test": "Multiplex PEA of cytokines released into culture medium by responder CD4+ T cells", "assay_type": "cell-based, human", "protocol": "as §3, with “milliliter. The assay was performed in 96-well plates in duplicates or triplicates, where each well was pre-coated with 3 μg/ml anti-CD3 antibody for 3-5 h at 37° C. Each well was loaded with 100,000 cells. Drugs were added to the wells at the relevant concentrations.” for “milliliter.”\nas §4"}, "[6]": {"tested_on": "responder CD4+ T cells", "test": "Proliferation of anti-CD3 stimulated GABA responder CD4+ T cells from ND individuals", "assay_type": "cell-based, human", "protocol": "as §1, §2, §3"}}, "data": [{"smiles": "NCCCC(=O)O", "note": "[GABA, gamma-aminobutyric acid]", "values": [{"measurement": "inhibition of cell proliferation", "setting": "[1]; GABA 1 μM, FIG. 3b", "result": "did not have any inhibitory effect"}, {"measurement": "inhibition at 0.1 µM", "setting": "[1]; Homo sapiens, PBMC, read-out: inhibition of cell proliferation", "result": "~20", "unit": "%"}, {"measurement": "number of cytokines whose release was significantly inhibited", "setting": "[2]", "result": 16, "unit": "cytokines"}, {"measurement": "number of cytokines whose release was significantly inhibited", "setting": "[3]", "result": 47, "unit": "cytokines"}, {"measurement": "inhibition of proliferation by GABA", "setting": "[4]", "result": "did not inhibit proliferation"}, {"measurement": "number of further distinct cytokines specifically inhibited", "setting": "[5]; 100 nM GABA only", "result": 12, "unit": "cytokines"}, {"measurement": "number of cytokines inhibited by both concentrations", "setting": "[5]; both 100 and 500 nM GABA, FIG. 6b", "result": 15, "unit": "cytokines"}, {"measurement": "inhibition of proliferation", "setting": "[6]; 1 μM GABA, FIG. 3d", "result": "no inhibition"}, {"measurement": "inhibition at 0.5 µM", "setting": "[6]; Homo sapiens, CD4+ T, 72 h, read-out: maximum inhibition of proliferation", "result": "~40", "unit": "%"}]}]}
